This is one part of the list. Single values of this set are uncertain.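 Many melting curves are irregular; where none melted, Tm was taken as 64 °C.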
Compound: CCc1cnccc1C(=O)Nc1cc2c(cc1F)NC(=O)CC2
Assay: melting temperature shift (DMSO Tm minus MBE1-treated Tm) in cellular thermal proteome profiling; higher = less thermal stabilization by MBE1 (negative = stabilized by MBE1)
Conditions: A375

Sequences of proteins named here, by UniProt entry; tags and fusion partners are left off. A change or cut given only in a name is not applied to a line headed by its entry.
UniProt Q9BUR4: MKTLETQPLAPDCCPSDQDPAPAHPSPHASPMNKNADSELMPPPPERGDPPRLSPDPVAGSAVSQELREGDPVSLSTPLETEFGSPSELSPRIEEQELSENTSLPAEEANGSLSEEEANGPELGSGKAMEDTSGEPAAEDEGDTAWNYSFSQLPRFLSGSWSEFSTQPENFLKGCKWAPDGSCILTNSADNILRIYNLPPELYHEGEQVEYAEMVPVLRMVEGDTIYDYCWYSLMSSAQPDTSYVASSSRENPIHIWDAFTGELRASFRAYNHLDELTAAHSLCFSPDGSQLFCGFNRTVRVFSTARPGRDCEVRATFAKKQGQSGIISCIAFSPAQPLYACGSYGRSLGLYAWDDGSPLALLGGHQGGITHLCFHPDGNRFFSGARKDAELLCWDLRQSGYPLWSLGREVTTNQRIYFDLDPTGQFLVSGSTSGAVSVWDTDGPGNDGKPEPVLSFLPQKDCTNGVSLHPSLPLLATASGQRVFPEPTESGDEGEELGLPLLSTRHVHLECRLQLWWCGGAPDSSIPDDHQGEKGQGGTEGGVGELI
UniProt Q99733: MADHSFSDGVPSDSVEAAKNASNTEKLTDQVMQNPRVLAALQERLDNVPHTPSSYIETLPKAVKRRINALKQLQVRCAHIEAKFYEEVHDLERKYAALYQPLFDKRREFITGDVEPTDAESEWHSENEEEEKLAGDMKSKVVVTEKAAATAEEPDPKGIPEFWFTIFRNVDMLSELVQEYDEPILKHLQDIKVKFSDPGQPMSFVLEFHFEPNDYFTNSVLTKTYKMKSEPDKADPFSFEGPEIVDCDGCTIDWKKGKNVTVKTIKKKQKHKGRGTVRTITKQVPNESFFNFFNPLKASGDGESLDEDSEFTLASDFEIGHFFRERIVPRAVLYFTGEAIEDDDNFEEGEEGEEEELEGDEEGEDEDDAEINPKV
UniProt Q9BVM2: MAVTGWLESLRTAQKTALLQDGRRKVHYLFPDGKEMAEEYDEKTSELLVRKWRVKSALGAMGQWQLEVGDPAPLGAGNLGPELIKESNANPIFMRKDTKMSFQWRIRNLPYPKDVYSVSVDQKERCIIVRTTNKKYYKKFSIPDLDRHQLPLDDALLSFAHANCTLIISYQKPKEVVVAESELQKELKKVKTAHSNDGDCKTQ
UniProt Q9BVP2: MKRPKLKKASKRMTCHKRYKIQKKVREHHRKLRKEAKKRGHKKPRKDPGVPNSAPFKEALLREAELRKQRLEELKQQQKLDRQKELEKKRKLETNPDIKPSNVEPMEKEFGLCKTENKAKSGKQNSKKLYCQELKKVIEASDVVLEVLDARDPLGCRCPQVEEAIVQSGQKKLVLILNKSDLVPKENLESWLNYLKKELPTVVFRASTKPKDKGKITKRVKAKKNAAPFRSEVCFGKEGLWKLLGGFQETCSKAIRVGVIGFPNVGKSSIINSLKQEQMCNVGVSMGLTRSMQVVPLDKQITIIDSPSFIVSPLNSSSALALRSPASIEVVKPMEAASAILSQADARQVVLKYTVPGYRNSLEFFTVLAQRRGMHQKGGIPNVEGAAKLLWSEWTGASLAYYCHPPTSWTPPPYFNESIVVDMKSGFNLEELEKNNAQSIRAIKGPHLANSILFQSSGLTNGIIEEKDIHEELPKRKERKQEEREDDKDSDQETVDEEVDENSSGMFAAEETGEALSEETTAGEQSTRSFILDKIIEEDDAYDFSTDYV
UniProt Q9BRG1: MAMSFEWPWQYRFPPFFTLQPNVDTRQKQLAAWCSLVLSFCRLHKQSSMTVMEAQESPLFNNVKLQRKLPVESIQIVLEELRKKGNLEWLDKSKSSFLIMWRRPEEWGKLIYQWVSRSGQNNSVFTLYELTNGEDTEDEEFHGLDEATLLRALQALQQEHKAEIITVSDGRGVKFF
UniProt Q9BVI4: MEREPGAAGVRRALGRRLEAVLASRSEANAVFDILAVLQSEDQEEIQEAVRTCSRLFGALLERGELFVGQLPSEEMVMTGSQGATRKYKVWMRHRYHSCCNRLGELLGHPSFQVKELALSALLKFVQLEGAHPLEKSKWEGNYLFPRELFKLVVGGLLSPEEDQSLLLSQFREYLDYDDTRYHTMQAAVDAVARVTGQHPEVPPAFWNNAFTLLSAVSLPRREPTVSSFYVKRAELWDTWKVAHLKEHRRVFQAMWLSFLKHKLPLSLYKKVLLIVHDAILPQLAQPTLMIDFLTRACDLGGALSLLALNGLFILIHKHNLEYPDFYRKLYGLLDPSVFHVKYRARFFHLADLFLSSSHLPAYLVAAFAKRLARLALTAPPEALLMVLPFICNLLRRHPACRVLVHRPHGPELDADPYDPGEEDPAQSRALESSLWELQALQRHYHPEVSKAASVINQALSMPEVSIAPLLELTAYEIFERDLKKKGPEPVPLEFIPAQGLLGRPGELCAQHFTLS
UniProt Q9BTD8: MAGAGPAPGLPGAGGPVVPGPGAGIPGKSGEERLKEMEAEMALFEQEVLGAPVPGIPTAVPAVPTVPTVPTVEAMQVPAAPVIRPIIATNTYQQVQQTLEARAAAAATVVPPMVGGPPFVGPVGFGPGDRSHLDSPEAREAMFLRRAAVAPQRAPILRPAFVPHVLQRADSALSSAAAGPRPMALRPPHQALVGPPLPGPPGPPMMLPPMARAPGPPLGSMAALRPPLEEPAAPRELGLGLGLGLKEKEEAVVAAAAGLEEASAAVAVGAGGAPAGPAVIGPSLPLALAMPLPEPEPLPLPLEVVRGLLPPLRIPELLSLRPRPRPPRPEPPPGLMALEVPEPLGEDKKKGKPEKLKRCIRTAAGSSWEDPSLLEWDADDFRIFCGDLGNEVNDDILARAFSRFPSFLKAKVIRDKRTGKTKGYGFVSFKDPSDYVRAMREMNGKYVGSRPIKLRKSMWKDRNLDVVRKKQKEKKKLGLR
UniProt Q99962: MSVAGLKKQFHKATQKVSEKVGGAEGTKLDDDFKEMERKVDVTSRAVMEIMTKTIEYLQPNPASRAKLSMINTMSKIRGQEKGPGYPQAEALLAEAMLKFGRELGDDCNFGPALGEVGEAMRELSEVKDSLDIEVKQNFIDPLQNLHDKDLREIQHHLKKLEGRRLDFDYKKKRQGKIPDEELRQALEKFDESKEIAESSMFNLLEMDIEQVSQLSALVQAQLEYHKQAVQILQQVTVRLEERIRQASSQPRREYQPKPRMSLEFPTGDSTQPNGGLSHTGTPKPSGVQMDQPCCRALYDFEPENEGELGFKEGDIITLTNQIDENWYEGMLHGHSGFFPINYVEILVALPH
UniProt Q9BX68: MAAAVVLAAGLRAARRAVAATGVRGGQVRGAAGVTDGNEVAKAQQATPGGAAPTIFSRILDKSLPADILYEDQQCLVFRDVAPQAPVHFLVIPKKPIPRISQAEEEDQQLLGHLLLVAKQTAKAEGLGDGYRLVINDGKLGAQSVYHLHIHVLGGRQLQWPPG
UniProt Q9BU64: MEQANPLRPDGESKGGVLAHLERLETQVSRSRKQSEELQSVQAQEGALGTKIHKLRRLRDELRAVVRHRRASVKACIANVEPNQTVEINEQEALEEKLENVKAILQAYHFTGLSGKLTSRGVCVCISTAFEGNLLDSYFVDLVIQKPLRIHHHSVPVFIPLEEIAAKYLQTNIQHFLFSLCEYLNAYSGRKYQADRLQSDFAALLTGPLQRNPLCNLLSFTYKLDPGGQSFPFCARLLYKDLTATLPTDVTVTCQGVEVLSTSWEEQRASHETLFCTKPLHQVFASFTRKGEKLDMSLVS
UniProt Q9BVW5: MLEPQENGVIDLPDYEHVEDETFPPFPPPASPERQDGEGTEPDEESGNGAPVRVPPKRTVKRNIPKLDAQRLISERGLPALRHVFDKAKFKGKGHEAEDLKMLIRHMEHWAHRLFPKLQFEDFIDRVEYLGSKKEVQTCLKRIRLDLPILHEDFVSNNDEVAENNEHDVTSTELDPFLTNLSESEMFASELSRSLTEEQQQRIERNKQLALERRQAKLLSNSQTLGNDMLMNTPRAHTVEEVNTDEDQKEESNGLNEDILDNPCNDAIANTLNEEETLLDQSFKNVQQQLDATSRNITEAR
UniProt Q9BVA0, whole entry: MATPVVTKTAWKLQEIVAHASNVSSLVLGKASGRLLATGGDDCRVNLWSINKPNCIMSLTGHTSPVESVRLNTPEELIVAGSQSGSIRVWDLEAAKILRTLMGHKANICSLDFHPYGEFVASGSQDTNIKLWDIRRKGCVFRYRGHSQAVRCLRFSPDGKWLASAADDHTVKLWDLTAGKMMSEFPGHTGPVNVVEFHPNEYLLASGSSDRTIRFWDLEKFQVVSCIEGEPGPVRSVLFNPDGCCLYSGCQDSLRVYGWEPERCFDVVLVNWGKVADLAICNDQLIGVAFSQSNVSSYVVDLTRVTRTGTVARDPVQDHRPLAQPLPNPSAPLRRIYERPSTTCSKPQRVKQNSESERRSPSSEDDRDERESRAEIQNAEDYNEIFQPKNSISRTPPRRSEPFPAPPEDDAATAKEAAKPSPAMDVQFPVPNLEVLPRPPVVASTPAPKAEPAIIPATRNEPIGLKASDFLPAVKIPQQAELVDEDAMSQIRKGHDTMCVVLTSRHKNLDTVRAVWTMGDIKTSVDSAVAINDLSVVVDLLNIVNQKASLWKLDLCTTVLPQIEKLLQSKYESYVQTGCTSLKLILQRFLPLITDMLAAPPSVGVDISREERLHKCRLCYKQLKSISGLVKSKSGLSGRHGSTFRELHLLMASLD
UniProt Q99714: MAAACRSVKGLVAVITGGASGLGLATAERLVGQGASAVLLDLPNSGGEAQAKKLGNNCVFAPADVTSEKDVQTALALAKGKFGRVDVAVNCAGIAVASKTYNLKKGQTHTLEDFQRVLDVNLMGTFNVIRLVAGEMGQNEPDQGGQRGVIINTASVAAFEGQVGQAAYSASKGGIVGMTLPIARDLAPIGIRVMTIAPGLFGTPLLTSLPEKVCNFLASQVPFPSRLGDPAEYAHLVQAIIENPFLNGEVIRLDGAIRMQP
UniProt Q9BV86: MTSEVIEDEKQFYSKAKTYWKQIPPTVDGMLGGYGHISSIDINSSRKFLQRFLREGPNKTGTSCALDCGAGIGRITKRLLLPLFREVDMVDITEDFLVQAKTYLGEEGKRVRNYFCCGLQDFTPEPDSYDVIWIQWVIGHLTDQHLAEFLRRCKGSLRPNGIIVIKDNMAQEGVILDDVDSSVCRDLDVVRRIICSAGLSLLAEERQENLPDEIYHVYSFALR
UniProt Q9BVA1, whole entry: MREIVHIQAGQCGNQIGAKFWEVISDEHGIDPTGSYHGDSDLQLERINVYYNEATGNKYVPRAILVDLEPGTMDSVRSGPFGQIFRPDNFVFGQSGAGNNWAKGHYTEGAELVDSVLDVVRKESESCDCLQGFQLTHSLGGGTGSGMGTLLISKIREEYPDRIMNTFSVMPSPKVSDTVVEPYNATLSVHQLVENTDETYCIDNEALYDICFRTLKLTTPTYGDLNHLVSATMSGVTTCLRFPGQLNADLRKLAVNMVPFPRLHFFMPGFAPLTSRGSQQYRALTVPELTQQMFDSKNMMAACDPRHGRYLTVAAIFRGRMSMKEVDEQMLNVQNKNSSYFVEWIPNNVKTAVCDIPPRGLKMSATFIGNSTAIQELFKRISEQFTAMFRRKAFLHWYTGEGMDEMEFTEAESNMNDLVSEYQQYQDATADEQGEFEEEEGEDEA
UniProt Q9BR76, whole entry: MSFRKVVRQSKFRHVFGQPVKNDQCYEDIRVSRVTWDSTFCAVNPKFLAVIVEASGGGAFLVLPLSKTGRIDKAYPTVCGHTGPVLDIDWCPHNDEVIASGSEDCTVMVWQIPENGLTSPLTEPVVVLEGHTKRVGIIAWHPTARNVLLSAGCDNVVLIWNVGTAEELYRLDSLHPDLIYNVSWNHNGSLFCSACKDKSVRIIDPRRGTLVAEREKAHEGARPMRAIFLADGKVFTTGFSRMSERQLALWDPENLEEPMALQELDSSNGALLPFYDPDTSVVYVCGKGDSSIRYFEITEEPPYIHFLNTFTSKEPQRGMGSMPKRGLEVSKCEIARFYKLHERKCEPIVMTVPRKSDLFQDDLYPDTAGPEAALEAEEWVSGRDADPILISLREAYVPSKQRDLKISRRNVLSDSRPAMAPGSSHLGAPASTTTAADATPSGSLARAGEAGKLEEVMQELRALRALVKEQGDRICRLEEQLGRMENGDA
UniProt Q9BXK5, whole entry: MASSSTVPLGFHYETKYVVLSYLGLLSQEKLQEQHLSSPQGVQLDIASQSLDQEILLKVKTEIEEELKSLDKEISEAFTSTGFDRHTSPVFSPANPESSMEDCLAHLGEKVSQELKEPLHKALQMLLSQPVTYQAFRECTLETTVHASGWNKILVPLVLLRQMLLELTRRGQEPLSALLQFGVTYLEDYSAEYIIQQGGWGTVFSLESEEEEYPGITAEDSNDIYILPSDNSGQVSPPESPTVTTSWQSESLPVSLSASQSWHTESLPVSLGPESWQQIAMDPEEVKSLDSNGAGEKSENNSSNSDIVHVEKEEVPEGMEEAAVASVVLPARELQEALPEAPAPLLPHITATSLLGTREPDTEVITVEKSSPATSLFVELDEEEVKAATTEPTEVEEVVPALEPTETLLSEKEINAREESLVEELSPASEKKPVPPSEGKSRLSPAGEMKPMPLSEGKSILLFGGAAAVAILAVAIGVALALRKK

Target | melting temperature shift (MBE1 concentration: 100 nM) [°C] | melting temperature shift (MBE1 concentration: 1 uM) [°C]
WRAP53 (UniProt Q9BUR4) | -1.11 | -0.00671
NAP1L4 (UniProt Q99733) | -0.637 | -0.163
DPCD (UniProt Q9BVM2) | -0.367 | -0.442
GNL3 (UniProt Q9BVP2) | -0.0641 | -0.122
UniProt Q9BQ87 | -4.73 | -5.19
UniProt Q9BXP2 | -0.443 | 1.21
VPS25 (UniProt Q9BRG1) | 0.402 | 0.449
NOC4L (UniProt Q9BVI4) | -0.179 | -0.0513
RBM42 (UniProt Q9BTD8) | -0.891 | -0.985
SH3GL2 (UniProt Q99962) | 0.442 | 4.85
HINT2 (UniProt Q9BX68) | -1.58 | 1.74
SEC11C (UniProt Q9BY50) | -1.22 | 1.31
UniProt Q9BU64 | -1.03 | 0.791
S100A13 (UniProt Q99584) | -0.437 | -1.81
DNAJC7 (UniProt Q99615) | 0.226 | 0.0366
TIPIN (UniProt Q9BVW5) | 0.568 | 0.656
KATNB1 (UniProt Q9BVA0) | 0.421 | 0.263
AIFM2 (UniProt Q9BRQ8) | -0.805 | 0.436
CHID1 (UniProt Q9BWS9) | -1.23 | 0.323
HSD17B10 (UniProt Q99714) | -0.604 | 0.376
NTMT1 (UniProt Q9BV86) | -0.122 | -0.0855
UniProt Q9BVA1 | -1.06 | 0.134
CORO1B (UniProt Q9BR76) | 0.44 | 0.446
PRMT1 (UniProt Q99873) | -0.449 | 0.503
BCL2L13 (UniProt Q9BXK5) | -0.51 | -0.221

Looked up one by one from the list above (2):
Target | melting temperature shift (MBE1 concentration: 100 nM) [°C] | melting temperature shift (MBE1 concentration: 1 uM) [°C]
UniProt Q9BQ87 | -4.73 | -5.19
TIPIN (UniProt Q9BVW5) | 0.568 | 0.656
